# The list shows a part of the results. The main result of the screen is listed elsewhere. These columns were measured beside it and carry no call. The list favours compounds with an active or inconclusive main result. Words in brackets tell the shape of the fitted curve; partial curves, single points and poor fits give uncertain potencies.
# Assay: qHTS Assay for Lipid Storage Modulators in Drosophila S3 Cells;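 on cell number change: cells counted by Cell Tracker Red CMTPX staining in the red channel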
# Conditions: BODIPY lipid droplet fluorescence, 18-24 h; for cell number change: measured here: cell count max response, cells fed with added oleic acid
# In short: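 Drosophila S3 cells loaded with oleic acid (400 uM, as added) and compounds at several concentrations; lipid droplets imaged by 488-nm laser-scanning cytometry, 500–530 nm intensity and object ratio to cell channel. Percent activity normalized to 20 uM Triacsin C.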
# [1] = measured here: cell number channel AC50, cells fed with added oleic acid
# [2] = measured here: lipid fluorescence (Fed channel) AC50, cells fed with added oleic acid
SMILES,cell number change [%],AC50 [1],AC50 [2]
COc1ccc(C(=O)N/N=C/c2ccc(OC)c(CSc3ccccn3)c2)cc1,30.8,"2.31 µM [rising, full curve]","1.03 µM [rising, full curve]"
Cc1ccc2c(c1)N(Cc1ccc3c(c1)OCO3)C(=O)C(C)O2 (centres undefined),0.593,"0.206 µM [rising, full curve, poor fit]","0.092 µM [rising, full curve, poor fit]"
O=C(CCCN1C(=O)/C(=C\c2cccs2)SC1=S)NNC(=O)c1ccncc1,,"5.17 µM [rising, single point]","6.51 µM [rising, single point]"
O=C(Nc1nnc(C2CC2)s1)C1Cc2ccccc2CN1C(=O)c1ccco1 (centres undefined),31.6,"29.1 µM [rising, single point]",
CCOc1ccccc1Oc1coc2cc(OC)ccc2c1=O,-20.7,,"29.1 µM [falling, single point]"
Cc1ccccc1Cn1c2ccccc2c2cnn(CC(=O)NCc3ccco3)c(=O)c21,-18.1,,"0.461 µM [rising, single point]"
O=C(c1ccc(C(F)(F)F)cc1)N1CCC(=O)N(C(COCc2ccc(C(F)(F)F)cc2)Cc2ccccc2)CC1 (centres undefined),12,,"3.66 µM [falling, full curve, poor fit]"
OC(COc1c(F)cc(Br)cc1F)CN1CCOCC1 (centres undefined),11.3,,"3.66 µM [rising, full curve]"
CCOC(=O)c1c(N)sc2c1CCCC2,-30.3,"29.1 µM [falling, single point]",
NS(=O)(=O)c1ccc(NC(=O)CSc2nc3ccccc3n2-c2ccccc2)cc1,-44.4,"11.6 µM [falling, partial curve, poor fit]","23.1 µM [falling, partial curve, poor fit]"
CN(C)C(=O)COc1ncnc2sc(-c3ccccc3)cc12,-2.78,,
O=S(=O)(c1ccc(N2CCCC2)cc1)C(F)(F)F,-154,"29.1 µM [falling, single point]",
CC(C)C(=O)Nc1ccc(-c2nc3cccnc3o2)cc1,104,"7.31 µM [rising, partial curve]","0.411 µM [rising, full curve]"
Cc1ccc2c(c1)N(Cc1ccc([N+](=O)[O-])cc1)C=NS2(=O)=O,0.709,,"1.16 µM [falling, single point]"
O=C(Nc1cc(C(F)(F)F)ccc1N1CCOCC1)c1cccs1,30.6,"32.6 µM [rising, single point]","8.2 µM [rising, partial curve, poor fit]"
COc1ccccc1NC(=O)Cn1nnc(-c2ccccc2NC(=O)c2ccco2)n1,-47.4,"20.6 µM [falling, single point]","0.291 µM [rising, partial curve, poor fit]"
C=CCSc1nc2sc3c(c2c(=O)n1CC)CCc1ccccc1-3,-24.5,,"18.4 µM [rising, partial curve, poor fit]"

SMILES,cell number change [%],AC50 [1],AC50 [2]
O=C(Nc1ncc(S(=O)(=O)c2ccc([N+](=O)[O-])cc2)s1)c1ccc2ccccc2c1,-12.3,"0.00517 µM [falling, full curve, poor fit]","20.6 µM [falling, single point]"
Cc1ccc(C2C(C#N)=C(N)Oc3n[nH]c(-c4cccs4)c32)s1 (centres undefined),-20.5,,"16.4 µM [falling, single point]"
O=C(Nc1nnc(-c2ccccc2)s1)c1ccc(Cl)c(S(=O)(=O)N2CCOCC2)c1,6.65,,
CC1CC(C)CN(CCCCOc2ccc([N+](=O)[O-])cc2)C1 (centres undefined),-44.5,"18.4 µM [falling, partial curve]","0.0651 µM [falling, full curve, poor fit]"
COC(=O)C(C)(C(=O)OC)c1ccccc1[N+](=O)[O-],50.4,"13 µM [rising, partial curve]",
Cc1cc([N+](=O)[O-])ccc1NCc1cccc([N+](=O)[O-])c1,-6.42,,"29.1 µM [falling, single point]"
COCCCN1CN=C(NS(=O)(=O)c2ccc(C)cc2)NC1,3.85,,
O=C(NC1CC1)C1CCN(c2ccc(S(=O)(=O)N3CCOCC3)cc2Cl)CC1,16,,
CCOC(=O)C1=C(COC(=O)C(C)(C)Oc2ccc(Cl)cc2)NC(=O)NC1C (centres undefined),-1.3,,"0.411 µM [rising, full curve, poor fit]"
COc1ccc(C(=O)Nc2ccccc2C(=O)NC(Cc2ccc(O)cc2)C(=O)NNC(=O)c2ccc(C)cc2)cc1 (centres undefined),-31.6,"29.1 µM [falling, single point]","0.461 µM [rising, partial curve, poor fit]"
CCNC(=S)NNC(=O)C1CCN(Cc2ccccc2)CC1,10,,"5.17 µM [falling, partial curve]"
OC(CNCc1ccc(F)cc1)(c1ccc(F)cc1)c1ccc(F)cc1,-41.3,"32.6 µM [falling, single point]",
CCCCn1c(SCC(=O)Nc2cc(C)on2)nc2c1c(=O)n(C)c(=O)n2C,,"5.8 µM [rising, single point]","0.116 µM [falling, single point]"
Cc1nc2c(ccc3nc(NC(=O)Cc4cccc5ccccc45)sc32)s1,-41,"13 µM [falling, partial curve, poor fit]","13 µM [falling, partial curve]"
O=C(COC(=O)COc1ccc(Cl)cc1)NCc1cccs1,5.17,,"0.0731 µM [rising, full curve, poor fit]"
CCCCOc1cccc(OCCCC)c1C(=O)Nc1cc(C)on1,,"3.66 µM [rising, single point]","0.58 µM [rising, single point]"
O=C(O)c1cccc(-n2nc(-c3ccc(Cl)c([N+](=O)[O-])c3)c3ccccc3c2=O)c1,-2.99,,"29.1 µM [falling, single point]"

# — PubChem BioAssay AID2685 (National Center for Advancing Translational Sciences (NCATS), 2010)
